Assay results from patent US20060115815A1 (priority 2002, published 2006).
The match of structure and compound is tentative.

Test system: MT-2 cells
Experiment: Cytotoxicity Cell Culture Assay (CC50), XTT
Conditions: read-out: Cytotoxicity CC50, 5 days

Q: Which CC50 does the source give for `COc1ccc(S(=O)(=O)N(CC(C)C)C[C@@H](O)[C@H](Cc2ccc(OCP(=O)(Oc3ccccc3)Oc3ccccc3)cc2)NC(=O)O[C@H]2CO[C@H]3OCC[C@H]32)cc1` [drawing 651 R1=OPh R2=OPh] here?
A: 35 µM
